This passage reports binding results from article PMC5437309.

Chains of the proteins cited; added tags and fusions are not shown. Lines headed by an entry give the natural chain unless they say otherwise; changes in a name come on top.
UniProt Q16539: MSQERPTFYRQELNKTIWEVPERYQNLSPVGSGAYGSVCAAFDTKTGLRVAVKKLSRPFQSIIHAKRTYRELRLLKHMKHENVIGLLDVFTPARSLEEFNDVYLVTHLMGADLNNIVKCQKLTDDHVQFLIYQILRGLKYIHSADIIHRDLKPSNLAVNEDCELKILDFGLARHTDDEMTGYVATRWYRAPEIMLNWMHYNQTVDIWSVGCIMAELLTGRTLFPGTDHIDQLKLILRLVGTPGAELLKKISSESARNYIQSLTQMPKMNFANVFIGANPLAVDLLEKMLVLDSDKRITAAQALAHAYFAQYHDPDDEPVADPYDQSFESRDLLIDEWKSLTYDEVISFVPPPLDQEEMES

The target in this assay is GST-p38α (UniProt Q16539). Briefly: pull-down; GST-p38α (10 μg) on glutathione beads, rotated 1 h at +4 °C with cleared 293T lysate holding the luciferase fusion (7,000 units), low-salt buffer with 0.5% Igepal, washed three times; luciferase on beads as per cent of input; only the target purified.

Results are given in words; binding and its absence hold for the method and conditions named. In cells and extracts the contact can be indirect. Binding can be weak; no strength is given. Where a sequence is shown, tags or fusion partners need not be part of it.

B1: Luc-MKK3b (enzyme, UniProt P46734 1-347)
chain: MESPASSQPASMPQSKGKSKRKKDLRISCMSKPPAPNPTPPRNLDSRTFITIGDRNFEVEADDLVTISELGRGAYGVVEKVRHAQSGTIMAVKRIRATVNSQEQKRLLMDLDINMRTVDCFYTVTFYGALFREGDVWICMELMDTSLDKFYRKVLDKNMTIPEDILGEIAVSIVRALEHLHSKLSVIHRDVKPSNVLINKEGHVKMCDFGISGYLVDSVAKTMDAGCKPYMAPERINPELNQKGYNVKSDVWSLGITMIEMAILRFPYESWGTPFQQLKQVVEEPSPQLPADRFSPEFVDFTAQCLRKNPAERMSYLELMEHPFFTLHKTKKTDIAAFVKEILGEDS
On to B1, for which the binding entry was “binds”.
